Measured values: US20100151518A1
No constants are given. Whether binding was seen depends on the method and setting. In cells and extracts the contact can be indirect. Some entries that bind do so weakly or less than the wild type.

By UniProt entry, the sequences of proteins in these tests, tags left out. Residues count along the entry.
UniProt P0A6P1, residues 2-283: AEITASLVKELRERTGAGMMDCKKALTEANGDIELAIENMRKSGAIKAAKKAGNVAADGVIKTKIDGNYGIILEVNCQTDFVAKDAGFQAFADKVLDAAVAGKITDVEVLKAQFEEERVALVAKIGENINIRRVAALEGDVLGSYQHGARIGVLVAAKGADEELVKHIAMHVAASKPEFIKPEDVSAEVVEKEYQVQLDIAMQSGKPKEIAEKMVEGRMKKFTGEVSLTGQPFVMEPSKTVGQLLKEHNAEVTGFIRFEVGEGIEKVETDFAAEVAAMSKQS
UniProt P0CE47, residues 2-394: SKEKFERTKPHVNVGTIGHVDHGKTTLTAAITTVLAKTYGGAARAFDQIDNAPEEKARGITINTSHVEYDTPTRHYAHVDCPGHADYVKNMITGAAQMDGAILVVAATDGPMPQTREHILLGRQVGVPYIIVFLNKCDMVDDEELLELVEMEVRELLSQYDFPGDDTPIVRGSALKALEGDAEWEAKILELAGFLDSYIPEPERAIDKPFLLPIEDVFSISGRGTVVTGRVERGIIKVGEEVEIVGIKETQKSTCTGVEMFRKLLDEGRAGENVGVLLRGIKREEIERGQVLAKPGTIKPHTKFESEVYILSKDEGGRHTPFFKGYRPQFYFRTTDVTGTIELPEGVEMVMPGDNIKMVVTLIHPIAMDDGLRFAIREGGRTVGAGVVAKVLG
UniProt P14647: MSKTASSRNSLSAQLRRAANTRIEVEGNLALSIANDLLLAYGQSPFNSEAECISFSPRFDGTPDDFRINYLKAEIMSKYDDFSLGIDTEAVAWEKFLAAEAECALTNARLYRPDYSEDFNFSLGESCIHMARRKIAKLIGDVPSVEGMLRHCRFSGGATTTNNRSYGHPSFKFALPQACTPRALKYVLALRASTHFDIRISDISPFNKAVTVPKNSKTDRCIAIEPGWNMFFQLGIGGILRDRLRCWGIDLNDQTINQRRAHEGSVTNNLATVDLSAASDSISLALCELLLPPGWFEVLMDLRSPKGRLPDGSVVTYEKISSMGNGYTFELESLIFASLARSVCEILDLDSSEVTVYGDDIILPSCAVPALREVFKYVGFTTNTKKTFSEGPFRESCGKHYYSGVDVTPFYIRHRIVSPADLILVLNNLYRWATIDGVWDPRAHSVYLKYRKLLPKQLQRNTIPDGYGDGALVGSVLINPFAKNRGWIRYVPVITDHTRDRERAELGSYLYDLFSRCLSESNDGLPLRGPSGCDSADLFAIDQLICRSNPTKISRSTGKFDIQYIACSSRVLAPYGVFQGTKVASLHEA

Key:
[1] = biological target: elongation factor EF-Ts (E. coli) (UniProt P0A6P1); test: co-purification on HiTrap Q anion exchange and HiTrap SP cation exchange columns, SDS-PAGE
[2] = biological target: elongation factor EF-Tu (E. coli) (UniProt P0CE47); test: as above

For “Qβ replicase β subunit (from UniProt P14647 1-589) (enzyme)”, the binding [1] was “binds” and the binding [2] was “binds”.
